Reference: patent US20220025025A1 (IBEX BIOSCIENCES, published 2022)
Results are given in words; binding and its absence hold for the method and conditions named. Some entries that bind do so weakly or less than the wild type.

Chains of the proteins cited; added tags and fusions are not shown. Residues count along the entry.
UniProt P21333, residues 2-2647: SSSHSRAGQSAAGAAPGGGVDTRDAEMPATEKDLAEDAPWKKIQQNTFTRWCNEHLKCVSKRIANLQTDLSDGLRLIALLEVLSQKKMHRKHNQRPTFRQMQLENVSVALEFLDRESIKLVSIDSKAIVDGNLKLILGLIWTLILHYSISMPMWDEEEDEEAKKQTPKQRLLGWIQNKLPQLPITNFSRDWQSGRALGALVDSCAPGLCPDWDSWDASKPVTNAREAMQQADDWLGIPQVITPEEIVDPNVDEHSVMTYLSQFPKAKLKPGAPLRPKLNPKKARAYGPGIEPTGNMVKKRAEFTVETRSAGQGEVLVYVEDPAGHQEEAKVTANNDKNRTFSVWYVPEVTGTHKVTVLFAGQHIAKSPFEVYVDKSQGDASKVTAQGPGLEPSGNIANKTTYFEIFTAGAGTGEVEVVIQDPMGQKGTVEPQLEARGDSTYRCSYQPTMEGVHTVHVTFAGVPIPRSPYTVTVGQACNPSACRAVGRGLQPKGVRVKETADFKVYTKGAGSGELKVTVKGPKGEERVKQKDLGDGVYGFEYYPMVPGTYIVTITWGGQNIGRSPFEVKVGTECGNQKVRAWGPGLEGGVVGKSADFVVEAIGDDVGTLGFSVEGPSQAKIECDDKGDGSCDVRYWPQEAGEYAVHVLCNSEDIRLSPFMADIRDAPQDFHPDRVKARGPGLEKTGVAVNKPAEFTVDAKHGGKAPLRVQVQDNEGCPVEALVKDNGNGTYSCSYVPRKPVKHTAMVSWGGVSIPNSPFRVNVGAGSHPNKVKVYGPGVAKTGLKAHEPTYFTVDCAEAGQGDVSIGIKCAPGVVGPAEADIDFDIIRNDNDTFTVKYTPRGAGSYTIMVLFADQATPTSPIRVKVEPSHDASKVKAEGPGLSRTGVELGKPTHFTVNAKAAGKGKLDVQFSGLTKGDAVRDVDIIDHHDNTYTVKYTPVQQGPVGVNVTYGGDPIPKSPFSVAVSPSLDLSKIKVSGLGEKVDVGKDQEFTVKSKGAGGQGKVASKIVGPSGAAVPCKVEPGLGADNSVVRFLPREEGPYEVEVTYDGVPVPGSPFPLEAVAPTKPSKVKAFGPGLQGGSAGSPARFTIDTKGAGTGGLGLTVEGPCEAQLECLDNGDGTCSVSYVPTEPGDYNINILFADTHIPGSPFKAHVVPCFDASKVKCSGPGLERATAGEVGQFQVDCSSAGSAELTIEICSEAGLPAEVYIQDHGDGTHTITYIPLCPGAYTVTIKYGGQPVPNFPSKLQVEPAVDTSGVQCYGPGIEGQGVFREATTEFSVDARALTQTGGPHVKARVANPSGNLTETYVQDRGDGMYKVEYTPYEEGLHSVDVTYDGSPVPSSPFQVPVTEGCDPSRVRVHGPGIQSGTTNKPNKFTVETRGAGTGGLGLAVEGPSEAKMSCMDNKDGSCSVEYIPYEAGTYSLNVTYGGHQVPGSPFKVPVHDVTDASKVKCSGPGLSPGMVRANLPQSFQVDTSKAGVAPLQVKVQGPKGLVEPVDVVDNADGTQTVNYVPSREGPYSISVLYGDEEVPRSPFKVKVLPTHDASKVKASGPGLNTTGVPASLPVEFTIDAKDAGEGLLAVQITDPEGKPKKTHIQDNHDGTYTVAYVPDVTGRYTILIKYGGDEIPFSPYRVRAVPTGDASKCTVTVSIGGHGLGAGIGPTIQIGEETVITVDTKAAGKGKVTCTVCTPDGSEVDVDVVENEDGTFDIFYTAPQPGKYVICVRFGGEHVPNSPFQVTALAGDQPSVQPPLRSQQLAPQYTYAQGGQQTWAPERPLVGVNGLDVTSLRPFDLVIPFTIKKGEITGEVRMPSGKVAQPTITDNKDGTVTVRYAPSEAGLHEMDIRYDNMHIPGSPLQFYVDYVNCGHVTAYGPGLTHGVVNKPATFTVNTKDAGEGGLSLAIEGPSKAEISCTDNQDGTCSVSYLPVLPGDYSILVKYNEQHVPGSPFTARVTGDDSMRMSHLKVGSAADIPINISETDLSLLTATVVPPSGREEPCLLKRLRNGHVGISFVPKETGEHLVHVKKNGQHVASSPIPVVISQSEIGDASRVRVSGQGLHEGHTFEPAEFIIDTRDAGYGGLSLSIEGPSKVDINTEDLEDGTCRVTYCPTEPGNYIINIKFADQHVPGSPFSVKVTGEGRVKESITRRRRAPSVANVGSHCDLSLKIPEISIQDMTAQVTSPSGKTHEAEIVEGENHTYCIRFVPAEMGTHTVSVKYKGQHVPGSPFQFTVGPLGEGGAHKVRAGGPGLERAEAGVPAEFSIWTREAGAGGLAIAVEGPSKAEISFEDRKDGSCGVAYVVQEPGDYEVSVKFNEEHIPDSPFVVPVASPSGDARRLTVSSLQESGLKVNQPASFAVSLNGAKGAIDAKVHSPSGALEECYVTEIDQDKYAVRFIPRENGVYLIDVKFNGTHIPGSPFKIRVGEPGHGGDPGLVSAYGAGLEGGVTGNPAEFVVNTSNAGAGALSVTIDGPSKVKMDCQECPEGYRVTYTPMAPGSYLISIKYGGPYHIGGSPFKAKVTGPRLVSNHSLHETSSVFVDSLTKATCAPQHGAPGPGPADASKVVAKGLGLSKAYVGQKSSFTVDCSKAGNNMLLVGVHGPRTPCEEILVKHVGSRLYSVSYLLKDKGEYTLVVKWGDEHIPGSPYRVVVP

Tests used:
filamin-A [1] = target: T1, filamin-A (human, UniProt P21333 2-2647); test: immunofluorescence on fixed, permeabilized MDA-MB-231 cells
T1 construct: whole, on cells; Endogenous filamin-A of human cell lines; No purified filamin-A was used; also called FLNA; FLNa

filamin-A [2] = target: T1, filamin-A; test: immunofluorescence, 2% paraformaldehyde fixation and 0.2% Triton, MDA-MB-231 cells
filamin-A [3] = target: T1, filamin-A; test: immunofluorescence on MDA-MB-231 cells
filamin-A [4] = target: T1, filamin-A; test: immunofluorescence, methanol fixation and 0.2% Triton, MDA-MB-231 cells

binding (filamin-A [1]): binds
binding (filamin-A [2]): binds
binding (filamin-A [3]): binds
binding (filamin-A [4]): binds
B1: Anti-Filamin-A, human chimeric mAb (antibody, human IgG1, kappa, V domains shown)
VH: EVKLVESGGGLVQPGGSLKLSCAASGFTFSSYTMSWVRQTPEKRLEWVAYISNGGGSTYYPDTVKGRFTISRDNAKNTLYLQMSSLKSEDTAMYYCASDGLLRPFAYWGQGTLVTVSA
VL: DIVMTQSHKFMSTSVGDRVSITCKASQDVSIDVAWYQQKPGQSPKLLIYSASHRYTGVPDRFTGSGSGTDFTFTISGVQAEDLAVYFCQQHYSTPLTFGAGTKLELKR
